Here are results for 40 compounds from PubChem BioAssay AID2810 (NMMLSC, 2010).

This test is described as follows: modulators of CD8 T cell-vesicle binding, confirmation, cherry-picked primary hits, two concentrations (AID 2810).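 On all read-outs here: lower values mean blocking of vesicle binding.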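 On percent response (vesicle binding): ratio of mean FL2 vesicle stain of CD8+ cells to that row's control.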 Conditions: 2C CD8+ T cell-vesicle binding, flow cytometry; for double positive events: CD8+/vesicle+ events.
Setting [1] is: at 15.4 µM, stronger effect = lower value.

This is one part of the list. The main result of the screen is listed elsewhere. These columns were measured beside it and carry no call.

With `COc1ccc(C(=O)CCC(C)(C)[N+](=O)[O-])cc1OC`, under “at 7.7 µM”, the double positive events is 6.7% and the percent response (vesicle binding) came out at 76.5%. Moreover, the double positive events under setting [1] worked out at 24.9%.
On the same counts, the results for `C=CCC[C@H](Cc1ccc(F)cc1)C(=O)OC[C@H](C)NC(=O)[C@@H](CC=C)CC(=O)N[C@H](CO)Cc1ccccc1` are 21.2%, 232% and 12.5%.
On the same counts, the results for `COC(=O)c1ccc(NC(=O)COC(=O)C2=NN(c3ccccc3)C(=O)CC2)cc1` are 18.6%, 228% and 9%.
Taken in the same sequence, the figures for `Cc1ccc(N(C(=O)CNC(=O)c2ccco2)C(C(=O)NC2CCCCC2)c2cccnc2)cc1` (stereo not given) were 33.1%, 324% and 9.3%.
On to `COc1ccc(Nc2cc(C)nc3ncnn23)c(OC)c1`, for which, for the setting “at 7.7 µM”, the double positive events worked out at 6.5% and the percent response (vesicle binding) amounted to 386%. This compound also came in with a double positive events under setting [1] of 17.4%.
Taken in the same sequence, the figures for `Cc1cc(-c2n[nH]c(=S)n2/N=C/C=C/c2ccco2)n[nH]1` were 12.8%, 165% and 25.4%.
Where the note is “at 7.7 µM”, `O=c1[nH]c2ccccc2n1CCCOc1ccccc1` yielded a double positive events of 7.4% and a percent response (vesicle binding) of 70.1%. This compound also had a double positive events under setting [1] of 13.5%.
On the same counts, the results for `N=c1oc2ccccc2cc1C(=O)NCc1ccccc1` are 9.8%, 421% and 32.5%.
On the same counts, the results for `CCOc1ccccc1C1C(C(=O)Nc2ccc(OC)cc2)=C(C)Nc2nc(CCCO)nn21` (stereo not given) are 14.4%, 225% and 26.1%.
Taken in the same sequence, the figures for `O=[N+]([O-])c1ccc(Cl)c(S(=O)(=O)Nc2ccc(-c3ccc(N4CCOCC4)nn3)cc2)c1` were 9.4%, 388% and 16.4%.
As for `CC(C)c1ccc(C(C)NCCS(=O)(=O)c2ccc(Cl)cc2)cc1` (stereo not given), the double positive events stood at 14.3% (at 7.7 µM) and 21.8% under setting [1]. For the same compound, the percent response (vesicle binding) (at 7.7 µM) came to 172%.
On the same counts, the results for `CC(C)Oc1ccc(C(=O)CCN2CCCCC2)cc1` are 16.3%, 14.1% and 494%.
On the same counts, the results for `Cc1ccc(-c2cc(-c3ccccc3)c(C#N)c(N)n2)o1` are 10%, 19.8% and 99.2%.
On the same counts, the results for `COc1cc(OC)cc(-c2oc(=O)c3cc(OC)c(OC)cc3c2C(F)(F)F)c1` are 11.9%, 26.9% and 409%.
As to `CN(C)S(=O)(=O)Nc1ccccn1`, the double positive events (at 7.7 µM) came out at 26.8% and the double positive events under setting [1] came out at 14.7%. Besides, where the note is “at 7.7 µM”, the percent response (vesicle binding) stood at 311%.
Taken in the same sequence, the figures for `CCN(CC(=O)NCc1cccs1)C(=O)COc1ccc(C(C)=O)cc1` were 26.7%, 5.8% and 265%.
On the same counts, the results for `COc1ccccc1CCNC(=O)C(=O)NCC1OCCCN1S(=O)(=O)c1ccc(F)cc1C` (stereo not given) are 11%, 28.7% and 479%.
Taken in the same sequence, the figures for `O=c1[nH]nc(-c2ccccc2)cc1-c1ccccc1` were 6.9%, 22.7% and 206%.
For the setting “at 7.7 µM”, `N#Cc1cccc(NC(=O)CN2C(=O)NC3(CCCCCC3)C2=O)c1` returned a double positive events of 9% and a percent response (vesicle binding) of 320%. Also, under setting [1], the double positive events is 21.9%.
Taken in the same sequence, the figures for `CCN(C(=O)C1CCCN1S(=O)(=O)c1ccc2c(c1)n(C)c(=O)c(=O)n2C)c1ccccc1` (stereo not given) were 30.6%, 154% and 11.4%.
On the same counts, the results for `Cc1ccc(C(=O)Nc2ccc3c(c2)C(=O)N(CC2CCCO2)C3=O)cc1` (stereo not given) are 12.2%, 469% and 8.3%.
On the same counts, the results for `COc1cc(CN2CC(=O)N(c3ccc(C)c(C)c3)C2=S)cc(OC)c1OC` are 12.3%, 225% and 27%.
For the setting “at 7.7 µM”, `Nc1nc(SCC(=O)Nc2ccc([N+](=O)[O-])cc2)[nH]c(=O)c1NC(=O)c1ccc(Br)o1` came in with a double positive events of 14.5% and a percent response (vesicle binding) of 420%. The double positive events under setting [1] came to 22.1%.
On the same counts, the results for `CCSc1ccc([C@@H]2[C@@H]3C(=O)N(C)C(=O)[C@@H]3[C@]3(C(=O)OC)CCCCN23)cc1OC` are 19%, 172% and 21.9%.
With `CCc1nnc(NC(=O)CSc2nnc(CNc3ccc(OC)cc3)n2C)s1`, under “at 7.7 µM”, the double positive events came to 20.2% and the percent response (vesicle binding) is 368%. The compound further yielded a double positive events under setting [1] of 20.8%.
Under “at 7.7 µM”, `CCN(CC)S(=O)(=O)c1ccc(Cl)c(NC(=O)COC(=O)C2CCCCC2)c1` came in with a double positive events of 8.8% and a percent response (vesicle binding) of 339%. Also, under setting [1], the double positive events was found to be 2.4%.
`O=C(COC(=O)C12CC3CC(CC(Br)(C3)C1)C2)Nc1cccc(S(=O)(=O)N2CCOCC2)c1` displayed a double positive events (at 7.7 µM) of 20.8% and a double positive events under setting [1] of 23.3%. This compound gave a percent response (vesicle binding) (at 7.7 µM) of 140%.
For the setting “at 7.7 µM”, `Cc1ccc(/C=N/N=C2/NC(=O)C(CC(=O)Nc3ccc(Cl)cc3)S2)o1` (stereo not given) showed a double positive events of 14.1% and a percent response (vesicle binding) of 155%. Moreover, the double positive events under setting [1] worked out at 11.6%.
Taken in the same sequence, the figures for `O=S(=O)(c1ccc(Cl)cc1)N1CCC(O)(c2cccnc2)CC1` were 20%, 271% and 14%.
On the same counts, the results for `COc1ccccc1CC(NC(C)=O)C(=O)NC1CCN(c2nnnn2-c2ccccc2)CC1` (stereo not given) are 16.6%, 319% and 11.1%.
Taken in the same sequence, the figures for `Cc1cccc(-c2nc(C#N)c(NCc3ccco3)o2)c1` were 15.1%, 215% and 19.3%.
Turning to `CCOC(=O)c1c(NC(=O)CSc2nnc(C)s2)sc2c1CCC(CC)C2` (stereo not given), the double positive events by setting is: (at 7.7 µM) 7.9%; under setting [1], 29.3%. Besides, the percent response (vesicle binding) (at 7.7 µM) amounted to 121%.
On the same counts, the results for `Cc1ccc(C2C3=C(CC(C)(C)CC3=O)N=C3c4ccccc4C(=O)C32)cc1` (stereo not given) are 27.6%, 14.1% and 251%.
Consider `CCCCNc1c(-c2ccc(SC3CCCCC3)cc2)nc2cnccn12`, for which the double positive events reads like this: (at 7.7 µM) 28.1%; under setting [1], 32.5%. This compound displayed a percent response (vesicle binding) (at 7.7 µM) of 778%.
Taken in the same sequence, the figures for `CC1CC(C)CN(S(=O)(=O)c2ccc(C(=O)N3CCN(c4ccccc4)CC3)cc2)C1` (stereo not given) were 7.8%, 24.5% and 326%.
On the same counts, the results for `NC(=O)CCn1c(=O)oc2ccccc21` are 19.7%, 27% and 456%.
On the same counts, the results for `CCCCNC(=O)/C(C#N)=C/c1ccc2c(c1)OCCO2` are 22.1%, 12.8% and 131%.
Turning to `O=C(Nc1ncc([N+](=O)[O-])s1)c1cccs1`, for the setting “at 7.7 µM”, the double positive events was determined as 4.1% and the percent response (vesicle binding) turned out to be 95.2%. The double positive events under setting [1] is 41.4%.
On the same counts, the results for `C/C(CC(=O)Nc1ccccn1)=N\NC(=O)c1ccccc1` are 12%, 216% and 27.6%.
Taken in the same sequence, the figures for `O=C(Nc1ccc(-c2nc3ccccc3o2)cc1)c1ccc(N2C(=O)C3C4C=CC(C4)C3C2=O)cc1` (stereo not given) were 34.4%, 421% and 9.2%.
